The text below walks through data of PubChem BioAssay AID1347423 (Functional Genomics Laboratory (NCATS/FGL), 2020).

Hit rate of the full screen: of about 52,000 sequences, about 210 (0.4%) were called active.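 How the source made its calls: active means gene whose silencing raises cell survival under the drug, median off-target-corrected z-score across its silencing RNAs 2 or more; inactive means the rest.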 The list shows a part of the results.

This assay can be described thus: Resistance to Poly (ADP-Ribose) Polymerase inhibitor: Gene Identification via Genome-wide siRNA Screen. The following applies: mouse BRCA2 R2336H ES cells, olaparib, CellTiter-Glo viability; hits give high values. Summed up: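 Mouse BRCA2 R2336H ES cells were reverse-transfected with siRNA (20 nM final), treated at 48 h with 500 nM olaparib, and read by CellTiter-Glo after 72 h. Scores: MAD-based z per siRNA, median per gene, seed off-target correction.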
For CCGUAUGUAACCAUCAAAGTT against Ncf1, the z-score was inactive: -0.395.

With “GGAUCUUAAGAAGUUCCAATT against 0710001P09Rik”, the z-score is inactive: -0.902.

In the case of GCCAAGUGGGACAAAUUCGTT against Dnchc2, the z-score was inactive: 0.994.

As to CCUUCCAGGAUUUAUUGUGTT against Nr2f1, the z-score was inactive: 0.405.

As to GGUUCCUCCAUUGUUGAAATT against Olfr701, the z-score is inactive: 0.546.

For the sequence GCACUUAAUGCAAUAUGGATT against Clock, the z-score is inactive: -0.134.

For “GGUUUUGGAUACCAAAAACTT against 1200020A08Rik”, the z-score is inactive: 0.862.

As to CCAACAUGAAGCUUGUCCATT against Zfp259, the z-score is inactive: 0.217.

Regarding GGAGACUGUCAUGGCUGUGTT against Olfr397, the z-score is inactive: -0.0371.

For the sequence GCUAAUUCCCUGAAAGAUGTT against Rnf13, the z-score was inactive: -0.807.

Take GCAUAGCUCAUCAUUCGGCTT against Wfdc5: the z-score is inactive: 0.14.

For GGAGAUCCUGGCAAAAUACTT against Rutbc3, the z-score is inactive: -0.352.

As to CACUCAGCUCAAUGACCUGTT against Ifna14, the z-score is inactive: -0.514.

For “CCUCAGAAUAAAUGAAUCCTT against 1810049H13Rik”, the z-score is inactive: 3.26.

With GCCCAGUCAUUCCUACCAATT against Hoxc13, the z-score was inactive: -0.318.

With CCGUCCUCAGUUAUCUCUATT against Sorcs3, the z-score was inactive: -0.434.

With CCAGAACGGAAGAUGAUCATT against Slc4a1, the z-score was inactive: -0.685.

As to “CCAAAUGAAGCUCUGAAGATT against B130008E12Rik”, the z-score was inactive: -0.125.

For GGAGAACUACAGUCUUAUUTT against Slc39a12, the z-score is inactive: -1.04.

For GGAGGGAAAAGAGAAGAAATT against Rbm10, the z-score is inactive: 1.8.

Turning to GGAUGAUGACUUCCUAGGGTT against Cpne7, the z-score was inactive: 0.407.

As to GAAAAGAAUUCCAGAAGAUTT against Sec61g, the z-score was inactive: -1.54.

On to GCUUUUCAAACACAGUAGATT against Dlx3, for which the z-score was inactive: 1.07.

For the sequence “GCGAGUGAUUGAGGAUCCCTT against 2610027O18Rik”, the z-score was inactive: 0.29.

For the sequence “CGCUCACUGGUUUUUAAUUTT against E030018N11Rik”, the z-score is inactive: 1.42.

For the sequence GCCUUUCAAUCCUGAUUAATT against Rgs10, the z-score was inactive: -0.71.

“GGAAUUUGGACAAAUUGAATT against A630086M08Rik”: the z-score is inactive: -0.249.

For CGCAGAUGAUUAAGUUGGUTT against Olfr1000, the z-score was inactive: -0.729.

In the case of “GCUACUUAUCUGUUGGAAUTT against C330026N02Rik”, the z-score was inactive: -0.5.

Consider CCAGGAAUCAGUCUAUACUTT against Lrrc15, for which the z-score is inactive: 0.689.

As to GCUCGAGGCUUAGAAGACUTT against Hspb3, the z-score is inactive: -0.609.

Turning to GGUGUACUGAUUUUGAAGATT against Msh3, the z-score is inactive: -0.529.

As to GGACAAGUUUGAUGGAUCGTT against Rcor3, the z-score is inactive: 0.723.

Regarding CCGUUGGAGUCCAACCUAUTT against Ube2a, the z-score is inactive: -0.479.

With GCGCAAGAUUCUCCAGCUUTT against Qars, the z-score is inactive: -2.99.

Regarding GCCGGCUGUAUUCAGUACGTT against Hoxc9, the z-score is inactive: -0.44.

Turning to “GCUUCAACUCUUUUCAGAGTT against F830208F22Rik”, the z-score was inactive: 0.196.

Consider GGAUCAGGACAAUGAACUGTT against Ap1s2, for which the z-score was inactive: -0.328.

With “GGUUUUUGCCAAACUCUUUTT against D19Wsu162e”, the z-score is inactive: 1.92.

For the sequence GAUUUUCUUUGUUCAUCUCTT against Olfr727, the z-score is inactive: -0.431.

On to GGUAUAAACUCUAAAUGCUTT against Tpk1, for which the z-score was inactive: -0.0512.

Regarding GGACAUGUCCGAAUACUACTT against Tprt, the z-score is inactive: -0.613.

For the sequence “GCCAGGAUACUAAGUGUUUTT against D17Ertd441e”, the z-score is inactive: 0.673.

With CCAGAGUAAGAGUAAAAGCTT against Mamdc2, the z-score is inactive: 1.32.

Turning to GCCUCUUAAUUUUAAGCUGTT against Gpr82, the z-score was inactive: -0.563.

Take GGCCCUGACAGAGGAAAAATT against Impa2: the z-score is inactive: -0.555.

In the case of CGGGAUAGACAUGAGAGCUTT against Tmem2, the z-score is inactive: 0.928.

With “GGAUGAAUUUGGAGUUUCUTT against 1700045I19Rik”, the z-score is inactive: -0.497.

Take GGAACGGAUUCUAUCCAAUTT against Mosg: the z-score is inactive: 0.142.

For GCGUGGCCGUCAAAGAGUATT against Basp1, the z-score was inactive: -0.394.

Take GGACCGCUACUAUUCAGGATT against Myh10: the z-score is inactive: 1.14.

“GGACCUAAAGAAUUCAUCGTT against 9030205A07”: the z-score is inactive: 0.58.

Take GGCACCUGUUAAAAAUGAATT against D8Ertd82e: the z-score was inactive: 1.95.

Regarding “GGAAAGCUUACAAAUAUGCTT against 1500002I11Rik”, the z-score was inactive: 0.00152.

On to CCUUAAACUAGAAUUGUGUTT against Grap2, for which the z-score was inactive: 1.24.

Consider GGAUUUUACAGUUUUUGGATT against Pccb, for which the z-score was inactive: -0.438.

For the sequence CCUAGCUGAGGUGAACAACTT against Spr, the z-score is inactive: 0.543.

As for CCUCACAUAUACUGAGCUUTT against Zc3hdc1, the z-score is inactive: -2.38.

As for GGUUAUCAAGAAAAUUGGGTT against Exo1, the z-score was inactive: -0.156.

For the sequence “GGCCAUCGAUUUUGAAUACTT against 5830446M03Rik”, the z-score is inactive: -0.0599.

GUGACAGGAUAUGUUUCUATT against Cd226: the z-score was inactive: 0.503.

For the sequence GGUUUGGAGAUAUCGUGGGTT against Bmper, the z-score was inactive: 0.801.

With GGGACAUCAAUCGUAUUUUTT against Adar, the z-score is inactive: -0.524.

As for GGAAACAACAACAAAUACATT against C1ql3, the z-score is inactive: -0.604.

Turning to GGUCUUUCCCAGGAUUCCATT against Rab19, the z-score is inactive: -1.98.

For the sequence GGCAUGAAGUUUGAAGCCATT against Cnnm2, the z-score was inactive: 0.156.
